The other results are listed elsewhere or left out.

By UniProt entry, the sequences of proteins in these tests, tags left out.
UniProt Q0JBA9, entry or part of it: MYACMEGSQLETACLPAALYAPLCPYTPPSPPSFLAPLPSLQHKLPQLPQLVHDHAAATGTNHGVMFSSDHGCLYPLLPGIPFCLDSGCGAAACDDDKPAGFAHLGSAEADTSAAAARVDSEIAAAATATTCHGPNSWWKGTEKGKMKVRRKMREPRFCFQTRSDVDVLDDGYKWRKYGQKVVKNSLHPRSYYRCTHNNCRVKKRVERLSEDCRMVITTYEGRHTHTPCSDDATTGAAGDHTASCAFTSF

These results are taken from PMC7819943, “Rice protein-binding microarrays: a tool to detect cis-acting elements near promoter regions in rice”.

This assay concerns the target OsWRKY34 (Oryza sativa, UniProt Q0JBA9 1-250). Nature of the assay: protein-binding microarray (RPBM); PBS, 2% BSA, 51.3 ng/ul salmon testes DNA, 50 uM zinc acetate, 200 nM TF, 25 C, 1 h; high values mean tight binding. The conditions noted are these: protein: recombinant; tags: N-terminal polyhistidine and DsRed monomer fusion (pET32a); label: CyDye5-dUTP incorporated in the synthesized complementary strand; 3' TTTTT single-stranded linker to array surface; dsDNA, one strand shown. In a few lines: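 The binding signal for each feature is its fluorescence intensity in arbitrary units. An Axon 4000B scanner was used to read a custom Agilent array that had been made double-stranded with Cy5-dUTP primer extension, blocked with 2% BSA, incubated at 25 °C for 1 h with 200 nM protein in PBS, 2% BSA, salmon testes DNA and 50 µM zinc acetate, and washed. The protein was an N-terminal polyhistidine–DsRed transcription factor fusion from E. coli BL21-CodonPlus, purified on Ni–NTA.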
On to “CCCTTCGGCCGTGCCCGTGCGCCGGTCGACGTCGCCGTCTCGGAGTCACCTAGTGCAG”, for which the binding signal was 8540 fluorescence intensity (a.u.).
Regarding “CGCCCGCCTCCCCGCTCACATGCGCGCAACCACCGCCATGCGGAGTCACCTAGTGCAG”, the binding signal was 8390 fluorescence intensity (a.u.).
Take “TTATATTATGTTTTTTCTGCCTTTTTTCTTTTTTTCCCCTCGGAGTCACCTAGTGCAG”: the binding signal was 8700 ± 342 fluorescence intensity (a.u.).
For the sequence “TTTGGGACGGAGGGAGTTCTTCATTTTTTTTCTCTCAATTCGGAGTCACCTAGTGCAG”, the binding signal is 10500 fluorescence intensity (a.u.).
To “AGCTCTGGATTGCATCCCCAATCCCCTGTGTGTATTGACTCGGAGTCACCTAGTGCAG” belongs 8260 fluorescence intensity (a.u.); to “TCGATCTCCGTCCAATGCGCTCGCCGCCGCCGCCGCCATGCGGAGTCACCTAGTGCAG”, 8470 fluorescence intensity (a.u.).
As to “CGCGCTCACCGTCCTCTACCAGGACGCCGTCGGCGGCCTCCGGAGTCACCTAGTGCAG”, the binding signal is 8610 fluorescence intensity (a.u.).
Take “TTCTTGTTTGCTTTCACATGGTTTCATGCTCTCAGGCTCGCGGAGTCACCTAGTGCAG”: the binding signal was 8400 fluorescence intensity (a.u.).
With “CATCTTGTTGGGCCACGTCGCAGGCCGTTTCGGGGCCATCCGGAGTCACCTAGTGCAG”, the binding signal is 8910 fluorescence intensity (a.u.).
The result for “CATTGCTCATTGTTTACTCCATCACGCCCGCCACCATGCACGGAGTCACCTAGTGCAG” reads 8180 fluorescence intensity (a.u.).
The result for “GTTTCTTTTATTTCTTTTTCTTTGGATTTCTTTCCCCGAACGGAGTCACCTAGTGCAG” reads 9150 fluorescence intensity (a.u.); that for “CACAAGACTTTCGCCAAATATCACCCCATCACCAAAATACCGGAGTCACCTAGTGCAG”, 8840 fluorescence intensity (a.u.); that for “CCCCTCCACCACCGTTAACCGCCACGCCGGTCCTCTATCTCGGAGTCACCTAGTGCAG”, 9820 fluorescence intensity (a.u.).
Turning to “GCGACGCCACCGCCGCCCCACCGCCCCGACGCCCTATCCGCGGAGTCACCTAGTGCAG”, the binding signal was 8210 fluorescence intensity (a.u.).
To “TATCCTTATCTCACCTCGCTGCATTCGCTCACTCACACTCCGGAGTCACCTAGTGCAG” belongs 9880 fluorescence intensity (a.u.); to “CTCTTTGCCCTGAGCACGTTGCTCCCGTTCTTCATAAGGACGGAGTCACCTAGTGCAG”, 8550 fluorescence intensity (a.u.).
The result for “GGCACTGTAGCAAGTACTTTTTTATTTTTTTTCTTGGACACGGAGTCACCTAGTGCAG” reads 10300 fluorescence intensity (a.u.); that for “CCTTCTTATTCAACTCTGGATTTGCTTATTCAACAGAAGTCGGAGTCACCTAGTGCAG”, 10600 fluorescence intensity (a.u.); that for “TCGATGCTGCTGGATATCACATTCTATTCTATTGCAATCTCGGAGTCACCTAGTGCAG”, 9640 fluorescence intensity (a.u.).
“GTCCGCGTCACCCGTCTCTCCTCGCCGCCGCCGCTCTTTGCGGAGTCACCTAGTGCAG”: the binding signal is 9050 fluorescence intensity (a.u.).
On to “TTTTTCTCACATGTTTGACCATTCGTCTTATTCAAAAAATCGGAGTCACCTAGTGCAG”, for which the binding signal was 8040 fluorescence intensity (a.u.).
Consider “ATTCGTCAGTCACAACAGTTTCATTCGGTCCACCACCACACGGAGTCACCTAGTGCAG”, for which the binding signal is 8310 fluorescence intensity (a.u.).
On to “CCGCCATTGCCACACCCCACCCAAGCTCACCTCACCTCGCCGGAGTCACCTAGTGCAG”, for which the binding signal is 8420 fluorescence intensity (a.u.).
Take “ATGGCTGCTGCATGGTTGTTTGCATGGCCGTTGCAGTGTTCGGAGTCACCTAGTGCAG”: the binding signal is 9080 fluorescence intensity (a.u.).
To “CAGACTCCAACCTACTAAGTGCGTTGCTAGATGCCACGTTCGGAGTCACCTAGTGCAG” belongs 8200 fluorescence intensity (a.u.); to “GTAGGATCAATCTTTGTGCATGCCTTCTGGGATCAGTACTCGGAGTCACCTAGTGCAG”, 8060 fluorescence intensity (a.u.).
“ATTTCCTTTTCTTCCGTTTACTCGTCGCGGTCGCAGGGGCCGGAGTCACCTAGTGCAG”: the binding signal is 8080 fluorescence intensity (a.u.).
For the sequence “AGATGTAGTGGAAGTAATTTGGTGTTATAAATGTTGCTATCGGAGTCACCTAGTGCAG”, the binding signal was 8950 fluorescence intensity (a.u.).
The result for “TTGCACCATGGCTGTCGTCTCCTCCACCGTAATCTCGCCACGGAGTCACCTAGTGCAG” reads 9620 fluorescence intensity (a.u.); that for “TCGCGGTCTAACCAGAATGCCATCCTGAATGTTCATTGTTCGGAGTCACCTAGTGCAG”, 8330 fluorescence intensity (a.u.); that for “GTGCAGACGTGCACACACAGTACAGTCTCCGCTTGTTACACGGAGTCACCTAGTGCAG”, 8090 fluorescence intensity (a.u.).
Regarding “ACCCGCAACAGTCCAGTCCAGAGAGCCCCGAACTCCTCCACGGAGTCACCTAGTGCAG”, the binding signal was 8540 fluorescence intensity (a.u.).
With “CAGTCTCGTTAAGCAGTACTTTCTCCGTCCCAAAATATAACGGAGTCACCTAGTGCAG”, the binding signal was 8810 fluorescence intensity (a.u.).
As for “GCGTGCACTTGCGGTCGAGCTTGGTCCATCATTTTTTTTTCGGAGTCACCTAGTGCAG”, the binding signal was 11600 fluorescence intensity (a.u.).
Turning to “CTACATGTTTTCCTTCGCGCCAATTTACTTATATCATATGCGGAGTCACCTAGTGCAG”, the binding signal was 12100 fluorescence intensity (a.u.).
To “ACCTCTCCCTATTTTTCTTTCTTTTTTGCCATAAGACCATCGGAGTCACCTAGTGCAG” belongs 8430 fluorescence intensity (a.u.); to “GCTTATAGCCTGTTATTGTACCTGCTCTTAGGTTCTGTTCCGGAGTCACCTAGTGCAG”, 9240 fluorescence intensity (a.u.).
“TCTTGGTTGTTGGTGGTGGCTCAAAGATTGGGCTTTGACCCGGAGTCACCTAGTGCAG”: the binding signal was 8400 fluorescence intensity (a.u.).
For the sequence “TAATTGTTTAGTATTTTCTCTAACTTGTGCATTTGAATGTCGGAGTCACCTAGTGCAG”, the binding signal is 8070 fluorescence intensity (a.u.).
Turning to “CATATCTCATCCCATCATCGGTCATATTCTCCTCAGCTTCCGGAGTCACCTAGTGCAG”, the binding signal is 14300 fluorescence intensity (a.u.).
Take “AGCTGAATATCTCTGTTCAAGTGTTGACTAGCTACATATACGGAGTCACCTAGTGCAG”: the binding signal is 9050 fluorescence intensity (a.u.).
To “GAAACCACACCACATCAAACACAGAGCCTTATAATTTGCCCGGAGTCACCTAGTGCAG” belongs 8410 fluorescence intensity (a.u.).
